Measured values reported in PubChem BioAssay AID652054 (National Center for Advancing Translational Sciences (NCATS), 2013).
The campaign covered roughly 360,000 compounds. About 9,100 (2.5%) were called active. Inconclusive means that the source gave no clear call. Such entries were picked first, then a sample of the others. Rule as the data show it: active = max response below about -50%; inconclusive = no clear call, values can overlap the other calls; inactive = above that.

Amino acid sequences for entries named in this document (tags omitted).
UniProt P35462, whole entry, looked up: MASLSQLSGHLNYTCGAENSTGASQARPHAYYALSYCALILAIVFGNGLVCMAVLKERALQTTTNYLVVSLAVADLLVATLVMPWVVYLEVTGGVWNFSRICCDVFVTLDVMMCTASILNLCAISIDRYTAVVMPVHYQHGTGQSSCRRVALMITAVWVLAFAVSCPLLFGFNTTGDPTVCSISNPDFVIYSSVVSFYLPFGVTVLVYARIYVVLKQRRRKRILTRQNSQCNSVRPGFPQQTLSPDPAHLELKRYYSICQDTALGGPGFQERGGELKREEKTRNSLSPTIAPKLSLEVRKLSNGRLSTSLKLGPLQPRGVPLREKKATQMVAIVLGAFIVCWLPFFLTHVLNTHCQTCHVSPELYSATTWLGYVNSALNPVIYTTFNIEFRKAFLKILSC

Target: D(3) dopamine receptor (Homo sapiens) (UniProt P35462)
Test: qHTS of D3 Dopamine Receptor Antagonist: qHTS
Conditions: D3R cells, DiscoveRx beta-arrestin luminescence, antagonist mode; active compounds read low
In short: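 Cells expressing the human receptor were seeded at 1500 cells/well, incubated overnight at 37 degrees C in 5% CO2, then exposed to library compounds with dopamine controls for 90 minutes at 37 degrees C before luminescent detection.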
% is scaled to controls: 0 for no effect and ±100 for the full control effect.

| SMILES | max response, negative = inhibition |
| --- | --- |
| CCc1nc(Nc2ccc(N3CCN(C(C)=O)CC3)cc2)c2oc3ccccc3c2n1 | inconclusive: -38% |
| CC(C)NC(=O)C1(C)CCCCN1Cc1ccc(OCc2ccccc2)cc1 (configuration not stated) | inactive: 0% |
| CCN1C(=O)N(CC)C2C1N(C(C)=O)C(=O)N2C(C)=O (configuration not stated) | inconclusive: -45.1% |
| CCOc1cccc(-c2cc(=O)[nH][nH]2)c1 | inconclusive: -37.6% |
| O=C(CC1Oc2ccccc2NC1=O)NCCCN1CCN(C2CCCCC2)CC1 (configuration not stated) | inconclusive: -39.1% |
| O=C(O)Cc1c(O)ccc2ccccc12 | inconclusive: -49.3% |
| CC(C)OC(=O)Nc1ccc2c(c1)N(C(=O)N1CCN(C)CC1)c1ccccc1CC2 | inconclusive: -40.8% |
| CC1(C)CC2(CC(c3ccc(F)cc3)c3ccc(O)cc3O2)NC(=S)N1 (configuration not stated) | inconclusive: -30.2% |
| CCN1CCN(CCCOc2ccccc2-c2ccccc2)CC1 | inconclusive: -49.5% |
| CC(C)[C@H]1CN=C2N(CCNC(=O)CCC3CCCCC3)[C@H](Cc3ccc(O)cc3)CN21 | active: -82.8% |
| O=C(NCCCCc1ccccc1)Nc1cccc(F)c1 | inactive: 9.73% |
| COc1ccc(N=Nc2nc(-c3ccccc3)c(-c3ccccc3)[nH]2)cc1 | inconclusive: -38.5% |
| COc1ccc(C2=NOC(C(=O)NCC(C)C)C2)cc1 (configuration not stated) | active: -89.7% |
| O=C(Cn1c(-c2cncs2)nc2ccccc21)NCc1ccccc1 | active: -83.6% |
| CC(C)S(=O)(=O)N1CCN(c2ccnc3cc(Cl)ccc23)CC1 | inactive: -8.32% |
| Cc1cc(C)c(C)c(S(=O)(=O)N(C)C2CCN(C)CC2)c1C | active: -77.1% |
| COc1ccccc1NS(=O)(=O)c1cc([N+](=O)[O-])ccc1N/N=C/c1c[nH]c2ccccc12 | active: -87.6% |
| COc1ccc(C(=O)Nc2nnc(S(=O)(=O)N3CCC(C)CC3)s2)cc1OC | inconclusive: -33.6% |
| CCCCn1c(N)c(NCC)c(=O)[nH]c1=O | inactive: 1.72% |

| SMILES | max response, negative = inhibition |
| --- | --- |
| CCCN(CCC)CCNC(=O)CCC(=O)Nc1ccc2nc(N3CCOCC3)cc(C)c2c1 | active: -65.8% |
| N#Cc1ccc(OCC(=O)OCC(=O)c2ccc[nH]2)cc1 | inactive: 20.2% |
| CC(=O)Nc1ccc(S(=O)(=O)Nc2nc3ccc(C)cc3s2)cc1 | inconclusive: -40.6% |
| CCCn1c(C)cc(=O)c2cc(NC(=O)c3ccccn3)ccc21 | inconclusive: -44.1% |
| Cc1nnnn1-c1cccc(C(=O)O)c1 | inconclusive: -40.5% |
| O=c1cc(-c2ccccc2)oc2ccccc12 | inactive: 3.8% |
| COc1ccc(NS(=O)(=O)c2cccc(C(=O)NCC(c3ccc(OC)cc3)N3CCCC3)c2)cc1 (configuration not stated) | inconclusive: -31.4% |
| CC[C@]1(C(=O)OC)[C@H]2C(=O)N(Cc3ccccc3)C(=O)[C@H]2[C@H]2CN=C(SCC(=O)c3ccccc3)N21 | inconclusive: -32.3% |
| C[C@H]1CNC(=O)c2c(C(=O)NC3CCN(C(=O)OC(C)(C)C)CC3)ncn21 | inconclusive: -40% |
| O=C(CCN1CCOCC1)Nc1cc(C(=O)Nc2ccccc2F)ccc1N1CC2CC(C1)c1cccc(=O)n1C2 (configuration not stated) | inactive: 2.12% |
| FC(F)(F)c1cnc(Sc2nc3nccc(-c4ccc(Cl)cc4)n3n2)c(Cl)c1 | inconclusive: -30.6% |
| CCOC(=O)CSc1n[nH]c(-c2cccnc2)n1 | inactive: -22.7% |
| CCN(CC)c1ccc(/C=N/NC(=O)c2c(Cl)cnn2C)c(O)c1 | inactive: 8.61% |
| COCCCn1c(CCC(=O)O)ccc1-c1cccs1 | active: -54.5% |
| CCCCC(=O)Nc1ccc(C(=O)Nc2cccnc2)cc1 | inconclusive: -38.7% |
| Cc1onc(-c2ccccc2)c1C(=O)NCc1cccnc1 | active: -75% |
| Cc1nc2c(C)cccn2c1C(=O)c1ccccc1 | inactive: 7.69% |
| C=CCn1c(=N)n(CC(=O)O)c2ccccc21 | inconclusive: -35% |
| CC1(C)CC(NC(=O)COc2ccc(Cl)cc2Cl)CC(C)(C)N1 | inactive: 14.6% |

Two compounds drawn at random from those above:

| SMILES | max response, negative = inhibition |
| --- | --- |
| CC(C)[C@H]1CN=C2N(CCNC(=O)CCC3CCCCC3)[C@H](Cc3ccc(O)cc3)CN21 | active: -82.8% |
| CCN1C(=O)N(CC)C2C1N(C(C)=O)C(=O)N2C(C)=O (configuration not stated) | inconclusive: -45.1% |

(more compounds)

| SMILES | max response, negative = inhibition |
| --- | --- |
| COc1ccc(CCNCC(O)COc2c(C)cccc2C)cc1OC (configuration not stated) | inconclusive: -41.7% |
| O=C(CCN1CCCCO1)N1CCCC(Nc2ccc(F)c(F)c2)C1 (configuration not stated) | inactive: -8.31% |
| COc1ccc(CCNC(=O)COC(=O)c2ccc(Br)o2)cc1 | inconclusive: -47.5% |
| CC(=O)c1sc(NC(=O)COc2ccc(C(C)C)c(C)c2)nc1C | inconclusive: -30.5% |
| Cc1cc(NS(=O)(=O)c2ccc(NC(=O)COc3ccccc3Cl)cc2)no1 | inconclusive: -33.6% |
| O=c1[nH]c2cc3c(cc2cc1C(c1nnnn1Cc1ccccc1)N1CCCCCC1)OCCO3 (configuration not stated) | inactive: -18.6% |
| C[C@@H]1CCCCO[C@H](CN(C)S(=O)(=O)c2cccs2)[C@@H](C)CN([C@H](C)CO)C(=O)c2cc(NC(=O)C3CCCCC3)ccc2O1 | inconclusive: -38.2% |
| O=c1oc2ccccc2cc1NCc1ccccc1O | inconclusive: -42.1% |
| Cn1c(/C(C#N)=C/c2ccncc2)nc2ccccc21 | inconclusive: -34.3% |
| CN(CCOc1ccc(Cl)cc1)C(=O)C1CCN(C(=O)c2ccc(F)cc2)CC1 | inactive: 34.5% |
| COc1ccccc1N1CCN(CC(O)COCCOc2ccc(Br)cc2)CC1 (configuration not stated) | active: -86.4% |
| COC1=C(Nc2ccccc2OC)C(=O)c2ccccc2C1=O | inactive: 12.3% |
| O=C(Cc1ccc(Cl)cc1)NC1CCS(=O)(=O)C1 (configuration not stated) | inconclusive: -34.8% |
| CC(=O)C1=C(O)C(=O)N(CCc2c[nH]c3ccccc23)C1c1cccc(O)c1 (configuration not stated) | inconclusive: -33.5% |
| COc1ccc(Cc2nc3ccc(C(=O)N(C)CCCN4CCOCC4)cc3o2)cc1 | inactive: 18.6% |
| O=C(O)CC(NCc1ccco1)C(=O)OCCc1ccccc1 (configuration not stated) | inconclusive: -48.5% |
| Fc1ccccc1N1CCN(Cc2nc(-c3ccccc3)no2)CC1 | inconclusive: -48% |
| CC1(C)Cc2c(sc(NC(=O)c3ccc(S(=O)(=O)N4CCCCCC4)cc3)c2C(N)=O)C(C)(C)N1 | inconclusive: -31.1% |
| Cc1ccc(CN2C(=O)C(C)Nc3ncnc(N4CCOCC4)c32)cc1 (configuration not stated) | inconclusive: -35.9% |
